Source: the supplement of paper PMC7877785
± gives the uncertainty stated by the source. Many entries were measured with a wide error.

Experiment: self-splicing fitness, log relative to wild type (ln ratio); higher = more splicing; Tetrahymena group I intron in knt gene, E. coli kanamycin selection, DiMSum; sequences stand for … in CUCUCU…GGAGGGAAAAGUUAUCAGGCAUGCACCUGGUAGCUAGUCUUUAAACCAAUAGAUUGCAUCGGUUUAAAAGGCAAGACCGUCAAAUUGCGGGAAAGGGGUCAACAGCCGUUCAGUACCAAGUCUCAGGGGAAACUUUGAGAUGGCCUUGCAAAGGGUAUGGUAAUAAGCUGACGGACAUGGUCCUAACCACGCAGCCAAGUCCUAAGUCAACAGAUCUUCUGUUGAUAUGGAUGCAGUUCACAGACUAAAUGUCGGUCGGGGAAGAUGUAUUCUUCUCAUAAGAUAUAGUCGGACCUCUCCUUAAUGGGAGCUAGCGGAUGAAGUGAUGCAACACUGGAGCCGCUGGGAACUAAUUUGUAUGCGAAAGUAUAUUGAUUAGUUUUGGAGUACUCGUGGUCG
How it was run: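 The eight P1ex-region nucleotides of an intron in the knt kanamycin-resistance gene on pET-22b(+) were all randomised and the library put into E. coli BL21(DE3). Six replicate transformations were grown overnight at 37°C or 30°C on LB agar with or without 25 μg/mL kanamycin, together with 100 μg/mL carbenicillin, 50 μM IPTG and 0.2% rhamnose. Colonies were pooled and amplicon-sequenced on an Illumina HiSeq 2500. Fitness from DiMSum is the error-weighted combination of wild-type-normalised replicate fold changes, kanamycin over none.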

Sequence | self-splicing fitness (ln) (30 °C) | self-splicing fitness (ln) (37 °C)
UAGGAGCAAUAUUACGGCCG | -0.725 ± 0.75 | -0.292 ± 0.93
UGUUAGCAAUAUUACGCUCC | 0.558 ± 1.1 | 0.216 ± 0.84
CGAAAGCAAUAUUACGCGCA | -0.957 ± 0.12 | -0.435 ± 0.13
UAUUAGCAAUAUUACGAGGC | -1.34 ± 0.73 | 
CUAUAGCAAUAUUACGAGGC |  | -3.59 ± 0.73
UCGUAGCAAUAUUACGCAGA |  | -1.79 ± 0.51
GGAGAGCAAUAUUACGAGUC |  | -2.14 ± 0.55
CUUCAGCAAUAUUACGAUCC |  | -3.3 ± 1
UAGCAGCAAUAUUACGCUUC | -3.05 ± 0.34 | -2.25 ± 0.33
UUUUAGCAAUAUUACGCACC | -2.52 ± 0.8 | 
CGUUAGCAAUAUUACGCAUC | -2.23 ± 0.52 | 
GCAGAGCAAUAUUACGAAAA | -1.96 ± 1.2 | -0.681 ± 1
CUCUAGCAAUAUUACGUCGC | -4.79 ± 0.72 | 
CCUCAGCAAUAUUACGGAUC | -3.69 ± 0.73 | 
CGAGAGCAAUAUUACGUCGA | -2.37 ± 0.64 | -1.9 ± 0.66
GCGGAGCAAUAUUACGCUAG |  | -2.17 ± 0.55
UAGGAGCAAUAUUACGGAGA | -4.01 ± 0.59 | 
AGCGAGCAAUAUUACGAUGA |  | -2.94 ± 0.53
GAGAAGCAAUAUUACGCCGU | -2.18 ± 0.21 | -1.89 ± 0.21
CGUGAGCAAUAUUACGAUAA | -4.37 ± 0.39 | -2.68 ± 0.23
CUGCAGCAAUAUUACGAGCC |  | -3.68 ± 1
GUUAAGCAAUAUUACGCAAU | -3.09 ± 0.44 | -2.29 ± 1.1
AUACAGCAAUAUUACGGGUA | -1.24 ± 0.078 | -0.645 ± 0.078
CCGUAGCAAUAUUACGCCCC | -2.7 ± 0.76 | -2.27 ± 0.84
GGGGAGCAAUAUUACGUCGC | -1.96 ± 1.2 | 

Sequence | self-splicing fitness (ln) (30 °C) | self-splicing fitness (ln) (37 °C)
UAAGAGCAAUAUUACGGUAG | -3.79 ± 0.52 | 
CGGCAGCAAUAUUACGACUC | -0.739 ± 0.097 | -0.759 ± 0.1
CUGAAGCAAUAUUACGCGCC |  | -0.628 ± 0.56
CCUUAGCAAUAUUACGCAGC |  | -2.48 ± 0.62
CGUUAGCAAUAUUACGCUAC |  | -2.91 ± 0.75
AAAUAGCAAUAUUACGAACA | -0.981 ± 0.14 | -0.0486 ± 0.12
AAUUAGCAAUAUUACGUUCG | -1.16 ± 0.12 | -0.728 ± 0.18
CUACAGCAAUAUUACGGACC | -3.72 ± 1 | -2.75 ± 0.53
GUAUAGCAAUAUUACGUUAC |  | -2.28 ± 0.65
CGAGAGCAAUAUUACGAGCA |  | -2.32 ± 0.55
GGCUAGCAAUAUUACGGCUC |  | -1 ± 0.65
UUCGAGCAAUAUUACGAGAA | -2.68 ± 0.65 | 
GUCGAGCAAUAUUACGGCUU | -2.87 ± 0.53 | 
GUGGAGCAAUAUUACGUGCC | -2.72 ± 0.54 | 
AGUGAGCAAUAUUACGUGAU | -2.87 ± 0.26 | -2.74 ± 0.34
GUGGAGCAAUAUUACGGUUG |  | -3.96 ± 0.72
CGGGAGCAAUAUUACGCGCC | -3.28 ± 0.63 | -1.51 ± 0.43
CCGAAGCAAUAUUACGCCAG | -1.32 ± 0.11 | -0.531 ± 0.13
CGUCAGCAAUAUUACGACGC | -4.47 ± 0.51 | 
CCGUAGCAAUAUUACGAACC | -3.46 ± 0.52 | 
UAUGAGCAAUAUUACGAGGC |  | -2.45 ± 0.55
CCAGAGCAAUAUUACGACCA | -3.33 ± 0.53 | -2.76 ± 1.1
AUUGAGCAAUAUUACGCAAA |  | -1.72 ± 0.51
CCCGAGCAAUAUUACGAAGC |  | -2.39 ± 0.77
CAUGAGCAAUAUUACGCGCC | -3.99 ± 0.74 | -2.94 ± 0.53

Four records drawn at random from those above:
Sequence | self-splicing fitness (ln) (30 °C) | self-splicing fitness (ln) (37 °C)
AGUGAGCAAUAUUACGUGAU | -2.87 ± 0.26 | -2.74 ± 0.34
CUACAGCAAUAUUACGGACC | -3.72 ± 1 | -2.75 ± 0.53
AAAUAGCAAUAUUACGAACA | -0.981 ± 0.14 | -0.0486 ± 0.12
CUGAAGCAAUAUUACGCGCC |  | -0.628 ± 0.56

Later entries.

Sequence | self-splicing fitness (ln) (30 °C) | self-splicing fitness (ln) (37 °C)
GAGGAGCAAUAUUACGGUGG |  | -2.76 ± 0.74
UUCCAGCAAUAUUACGUACU | -4.8 ± 0.51 | 
GCGGAGCAAUAUUACGUUCC | -2.04 ± 0.82 | -1.69 ± 0.81
UCGUAGCAAUAUUACGAAUA | -3.94 ± 0.61 | 
GGAUAGCAAUAUUACGAAUA | -2.45 ± 0.5 | 
AAGGAGCAAUAUUACGCACU | -1.53 ± 0.17 | -0.454 ± 0.18
CCAGAGCAAUAUUACGCUCC | -3.31 ± 1 | -1.33 ± 1.2
UCUUAGCAAUAUUACGGUUA | -2.94 ± 0.57 | 
GAUAAGCAAUAUUACGCCAG | -2.86 ± 0.54 | -2.01 ± 0.51
UUGUAGCAAUAUUACGAUCC | -0.986 ± 0.87 | 
AGUAAGCAAUAUUACGUCAG | -4.94 ± 0.58 | 
GAUUAGCAAUAUUACGACGG | -4.45 ± 1 | 
AAGUAGCAAUAUUACGGCGG | -2.56 ± 0.17 | -0.842 ± 0.15
CCUUAGCAAUAUUACGGGAU | -3.68 ± 0.29 | -2.68 ± 0.27
GAAGAGCAAUAUUACGCAAA | -3.66 ± 1 | 
GUGUAGCAAUAUUACGGCUG | -3.23 ± 0.23 | -1.28 ± 0.25
GGAGAGCAAUAUUACGUCUC |  | -1 ± 0.77
GCAGAGCAAUAUUACGUCCC | -1.86 ± 0.65 | 
UUUGAGCAAUAUUACGUGAU |  | -3.47 ± 0.59
GUGAAGCAAUAUUACGAGCC | -3.63 ± 1 | 
UUUAAGCAAUAUUACGGUAC |  | -2.5 ± 0.61
CGUGAGCAAUAUUACGCGCG | -2.44 ± 0.81 | -0.234 ± 1
UGGGAGCAAUAUUACGGUGC | -3.7 ± 1.1 | 
GGUUAGCAAUAUUACGCUAG |  | -0.522 ± 0.77
GAGUAGCAAUAUUACGCUCC | -4.32 ± 1 | -1.79 ± 1.2

Sequence | self-splicing fitness (ln) (30 °C) | self-splicing fitness (ln) (37 °C)
CGGGAGCAAUAUUACGACUC | -2.66 ± 1.1 | 
UCGCAGCAAUAUUACGACCC |  | -1.76 ± 0.86
AGAGAGCAAUAUUACGCCGU | -4.4 ± 1 | -2.24 ± 0.78
CGCUAGCAAUAUUACGGUCA | -0.0527 ± 0.076 | 0.137 ± 0.079
GGGAAGCAAUAUUACGUUGU | -3.23 ± 0.22 | -2.31 ± 0.29
UACUAGCAAUAUUACGAAAG | -2.94 ± 0.11 | -1.93 ± 0.13
UACCAGCAAUAUUACGAGUG | -0.127 ± 0.052 | -0.0711 ± 0.067
GUUAAGCAAUAUUACGUCAG | -3.43 ± 0.53 | 
CUCCAGCAAUAUUACGGGCC |  | -3.53 ± 0.73
CGUGAGCAAUAUUACGCUAC | -1.52 ± 1.2 | 
UUCGAGCAAUAUUACGUAGC | -2.62 ± 1.1 | -2.99 ± 0.74
UCGUAGCAAUAUUACGACAG | -3.38 ± 0.6 | 
CCUAAGCAAUAUUACGAUCC |  | -2.37 ± 0.54
GACUAGCAAUAUUACGAGUC | -4.4 ± 0.51 | 
UGUUAGCAAUAUUACGUGGC |  | -0.802 ± 0.68
CCAGAGCAAUAUUACGCGAC | -2.94 ± 0.54 | -3.98 ± 0.52
UGGGAGCAAUAUUACGACAG | -2.61 ± 0.53 | -0.778 ± 1.4
AGUGAGCAAUAUUACGGGGC | -4.81 ± 0.71 | 
GGUCAGCAAUAUUACGCCAC | -1.55 ± 0.71 | -2.87 ± 0.75
GCAUAGCAAUAUUACGAUGC |  | -3.19 ± 0.52
GAUAAGCAAUAUUACGUCAC | -4.49 ± 1 | 
CUUGAGCAAUAUUACGCCUA | -0.743 ± 0.6 | 
